This passage reports binding results from patent publication US20250352662A1.

Chains of the proteins cited; added tags and fusions are not shown. Lines headed by an entry give the natural chain unless they say otherwise; changes in a name come on top.
UniProt O95436: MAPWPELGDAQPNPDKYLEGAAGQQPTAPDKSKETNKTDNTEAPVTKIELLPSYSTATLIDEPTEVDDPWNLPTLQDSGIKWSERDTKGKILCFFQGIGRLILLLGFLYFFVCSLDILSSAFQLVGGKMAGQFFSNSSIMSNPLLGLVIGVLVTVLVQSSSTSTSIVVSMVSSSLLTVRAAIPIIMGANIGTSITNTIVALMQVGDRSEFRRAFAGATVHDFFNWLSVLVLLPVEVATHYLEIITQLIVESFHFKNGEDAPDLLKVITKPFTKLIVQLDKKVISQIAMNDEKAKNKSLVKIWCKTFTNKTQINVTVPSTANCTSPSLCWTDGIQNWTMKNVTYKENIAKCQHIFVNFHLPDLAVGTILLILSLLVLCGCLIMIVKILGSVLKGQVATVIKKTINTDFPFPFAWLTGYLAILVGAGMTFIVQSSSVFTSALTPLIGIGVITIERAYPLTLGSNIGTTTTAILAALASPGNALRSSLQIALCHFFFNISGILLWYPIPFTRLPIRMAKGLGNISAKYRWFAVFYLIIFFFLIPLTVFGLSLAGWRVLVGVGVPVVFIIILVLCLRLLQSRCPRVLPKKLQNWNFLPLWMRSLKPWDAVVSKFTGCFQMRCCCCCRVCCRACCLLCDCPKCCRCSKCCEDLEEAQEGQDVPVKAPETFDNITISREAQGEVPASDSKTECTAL

Results are given in words; binding and its absence hold for the method and conditions named. Some binding calls cover weakened binding; strength is not graded here.

This assay addresses human NaPi2b on OVCAR3 human ovarian cancer cells (human) (UniProt O95436). The experiment in a line: flow cytometry on OVCAR3 cells. A general note: Flow cytometry measures light scatter and fluorescence of single cells or particles in a stream.

B1: XMT-1535 mIgG2a Conjugate 32d, DAR 8.8 (antibody, V domains shown)
VH: QVQLVQSGAEVVKPGASVKMSCKASGYTFTGYNIHWVKQAPGQGLEWIGAIYPGNGDTSYKQKFRGRATLTADTSTSTVYMELSSLRSEDSAVYYCARGETARATFAYWGQGTLVTVSSG
VL: DIQMTQSPSSLSASVGDRVTITCSASQDIGNFLNWYQQKPGKTVKVLIYYTSSLYSGVPSRFSGSGSGTDYTLTISSLQPEDFATYYCQQYSKLPLTFGQGTKLELKR
In the case of B1, the binding entry is recorded as “binds”.
